Results from PubChem BioAssay AID1458 (National Center for Advancing Translational Sciences (NCATS), 2008).
Several values for one entry are separate records, joined by “and”; a condition that tells them apart may be missing. Identical values can stand only once. The whole screen tested about 210,000 compounds, of which about 5,900 (2.8%) were called active. Another 5% or so got no clear call; they are omitted. Calls come from the whole dose curve; as a rule, active = well fitted activation curve with a large enough effect; inconclusive = small, poorly fitted or top-dose-only effect; inactive = no such curve, though single readings can be large or run the other way. Only a part is listed here, and it is no random draw. Where no call is shown, the source filed none. Some structures have more than one record in an assay (separate samples or runs), and their calls can disagree.
Potency is the fitted concentration of half-maximal effect.

Test: qHTS Assay for Enhancers of SMN2 Splice Variant Expression; note: nearly all actives have a fitted effect of over 55% in size; for activity change, positive = activation: % of control where 0% means no effect
Conditions: HEK293 SMN2-luciferase splicing reporter, luminescence, 30-36 h; activity change, positive = activation: at 46.1 µM (top of the series) unless noted
Procedure, shortened: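 HEK293 cells carry an SMN2 […]–luciferase reporter in which exon 7 inclusion puts luciferase in frame. Cells were plated 10-12 h before compound addition, then incubated 30-36 h at 37C. ONE-Glo luminescence was read; sodium butyrate at 4.5 mM final served as control.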
For `CCOCC(=O)Nc1nc2ccc(C)cc2s1`, the Potency was active: 10 µM. For `O=c1c2ccccc2cnn1-c1nc2ccccc2[nH]1`, the activity change, positive = activation was -83.6%. With `Cc1ccc2c(=O)cc(C(=O)Nc3sc4c(c3C(=O)NCc3cccnc3)CCCC4)oc2c1` the activity change, positive = activation was 32.2%. In the case of `Cc1ccc(CNCc2cc3c(C(C)(C)C)nn(-c4ccccc4)c3[nH]c2=O)cc1`, the activity change, positive = activation is reported as 70.5%. Work on `Cc1nnc(C)n1/N=C/c1cc(Br)cc(Br)c1O` yielded an activity change, positive = activation of 36.7%. In the case of `COc1ccc(C(=O)OCC(=O)Nc2ccc(Cl)cn2)cc1`, the activity change, positive = activation is reported as 35.5%. For `Cc1ccc(-c2nnc(SCC(=O)Nc3ccc4c(c3)oc3ccccc34)n2C)c(Cl)c1`, the “activity change, positive = activation” value was inactive: -83.3%. With `COc1ccc(-n2nc(C(=O)O)nc2-c2ccccc2)cc1` the activity change, positive = activation was 54.5%. `CCOC(=O)Cc1csc(NC(=O)CSc2nnc(Cc3csc(N)n3)n2C)n1` gave an activity change, positive = activation of 30.1%. For `CCCCOc1cccc(C2(C(=O)O)CCCC2)c1`, the activity change, positive = activation was 32.7%. Work on `O=S(=O)(c1ccccc1)N1CCN=C1SCc1ccccc1Cl` yielded an activity change, positive = activation of -29%. Work on `CSC1=NC2(CCCCC2)CC12C=CC(=O)C=C2` yielded an activity change, positive = activation of -4.72%. In the case of `O=C(CSc1nnc2c3c4c(sc3ncn12)CCCC4)NCc1ccco1`, the activity change, positive = activation is reported as -40.3%. With `CCOC(=O)C1=C(CC)Nc2ccccc2N=C1NC(=O)c1oc2ccccc2c1C` the “activity change, positive = activation” value was inactive: -39.1%. For `Nc1ccccc1S(=O)(=O)NC1=NCCCCC1`, the activity change, positive = activation was 35.4%. With `Cc1ccc(C)c(OCCOCCN2CCOCC2)c1` the activity change, positive = activation was 44.1%. In the case of `CCOc1ccccc1/C=C/C(=O)c1ccc(Cl)cc1`, the “activity change, positive = activation” value is reported as inactive: -58.2%. `O=C(O)CC1NC(=O)N(c2ccc(Cl)cc2)C1=O` (stereo not given) showed an activity change, positive = activation of 19%. Molecule `COC(=O)c1nc(-n2nc(C)cc2C)ccc1Cl` has an activity change, positive = activation of 19.4%. Work on `CC(=O)Nc1cn(C(C)=O)c(C)n1` yielded an activity change, positive = activation of 26.8%. For `Nc1nc(N2CCN(C(=O)c3ccco3)CC2)nc2ccccc12`, the Potency was active: 12.6 µM. Molecule `CC1Cc2nc(SCC(=O)Nc3nccs3)n(C)c(=O)c2S1` (stereo not given) has an activity change, positive = activation of 48.2%. Work on `O=C(Nc1nc(-c2ccc(F)cc2)cs1)c1ccc(N2C(=O)CCC2=O)cc1` yielded an activity change, positive = activation of -40.5%. Molecule `O=C(Oc1cccc2ccccc12)c1cc(Cl)nc2ccccc12` has an activity change, positive = activation of 1.16%. Work on `Nc1ccc(S(=O)(=O)Nc2ccc(S(N)(=O)=O)cc2)cc1` yielded an activity change, positive = activation of 30.2%. For `COc1cc(C(=S)N2CCCC2)cc(OC)c1OS(=O)(=O)c1ccc(NC(C)=O)cc1`, the activity change, positive = activation was 33.4%. In the case of `Oc1[nH]c2ccccc2c1C=Nc1ccc2c(c1)OCO2`, the Potency is reported as active: 0.891 µM. Molecule `Nc1cc(S(=O)(=O)N2CCCCC2)ccc1Oc1ccccc1` has an activity change, positive = activation of -66.2%. With `CC(C)N(C(=O)CSc1nc2ccccc2n1Cc1ccc(F)cc1)C(C)C` the “activity change, positive = activation” value was inactive: -41.8%. `Cc1ccc2nc(-c3ccc(NC(=S)NC(=O)C(C)C)cc3)sc2c1` showed an activity change, positive = activation of 68.6%. In the case of `FC(F)(F)c1cccc(Nc2ncnc3ccccc23)c1`, the activity change, positive = activation is reported as -21.1%. `CCc1c(C(=O)Nc2nnc(C3CC3)s2)csc1C` showed an activity change, positive = activation of 49.5%. `COc1cc(OC)c2nc(C)c3c(c2c1)N(c1ccc(O)cc1)CC3` gave an activity change, positive = activation of -39.7%. With `O=S(=O)(c1ccc2c(c1)OCCO2)N1CCN(c2ncnc3sccc23)CC1` the “activity change, positive = activation” value was inactive: -84.8%. `Cc1nn(C)c(C)c1CNC(=O)Nc1cccc(Cl)c1` showed an activity change, positive = activation of 125%. Work on `Cc1ccc(S(=O)(=O)NCCOc2nc(N(C)C)nc(N3CCOCC3)n2)cc1` yielded an activity change, positive = activation of 21.7%. For `COC(=O)COc1ccc(S(=O)(=O)Nc2ccc3c(c2)OCO3)cc1`, the activity change, positive = activation was 33%. With `COC(=O)c1ccc(NC2=CC(=O)CC(C)(C)C2)cc1` the activity change, positive = activation was 30.7%. Molecule `OC(CNCc1ccc(F)cc1)(c1ccc(F)cc1)c1ccc(F)cc1` has an activity change, positive = activation of -38%. For `NC(=O)c1cccnc1Nc1ccccc1Cl`, the “activity change, positive = activation” value was inactive: -18.8%. Molecule `Cc1ccc(NC(=O)c2oc3c(c2C)C(=O)CC(C)(C)C3)cc1` has an activity change, positive = activation of 44.2%. For `COc1ccc(CCN2C(=O)C3C4C=CC(C3C2=O)C2C(=O)N(CCc3ccc(OC)c(OC)c3)C(=O)C42)cc1OC` (stereo not given), the “activity change, positive = activation” value was inactive: -107%. In the case of `COc1ccc(CCN/C=C2/CC(=O)NC2=O)cc1OC`, the activity change, positive = activation is reported as 36.9%. In the case of `Cc1ccccc1-c1nnc(-c2ccc(Cl)cc2)o1`, the activity change, positive = activation is reported as 39.1%. For `Cc1ccc(NC(=O)Nc2cnc3ccccc3c2)cc1`, the Potency was active: 12.6 µM. Molecule `CCOC(=O)c1nn(-c2ccc(OCC)cc2)c2nc(-c3cccc(OC)c3)c(C#N)c(=O)n12` has an activity change, positive = activation of -2.08%. Work on `COc1cc(/C=N\NC(=O)CNC(=O)c2cccc([N+](=O)[O-])c2)ccc1O` yielded an activity change, positive = activation of 33.3%. `Cc1[nH]nc(-c2ccc(O)c(C)c2O)c1-c1cnn(-c2ccccc2)c1` showed an activity change, positive = activation of 37.1%. For `COCCNc1nc(-c2cc3ccccc3o2)cs1`, the Potency was active: 3.16 µM. For `Cc1ccc(C(=O)Nc2ccccc2C(=O)NC(C(=O)O)C(C)C)cc1` (stereo not given), the Potency was active: 12.6 µM. In the case of `CC(C)c1ccc(OCC(=O)NC2=NCCS2)cc1`, the activity change, positive = activation is reported as -34.7%. For `O=C(CSc1nnc(-c2ccccc2Cl)o1)Nc1ccc2c(c1)OCCO2`, the Potency was active: 14.1 µM. In the case of `CC(C)OC(=O)CN1C(=O)C(C)(C)Oc2ccc(C(=O)NC(C)(C)C)cc21`, the activity change, positive = activation is reported as 32.2%. For `N#C/C(=C\c1ccc(Sc2ccccc2)o1)c1nc2ccccc2[nH]1`, the Potency was active: 11.2 µM. Molecule `COCCSc1nnc(-c2cccc(C#N)c2)n1C` has an activity change, positive = activation of 56.9%. For `CCOc1ccc(-c2nc(CSCC(=O)NCc3ccco3)c(C)o2)cc1`, the “activity change, positive = activation” value was inactive: -64.6%. Molecule `CCN1CCN(S(=O)(=O)c2cc(OCC(=O)NC3CCCCC3)c(C)cc2Cl)CC1` has an activity change, positive = activation of -88.2%. In the case of `O=c1c(Cl)c(NCC2CCCO2)cnn1C12CC3CC(CC(C3)C1)C2` (stereo not given), the “activity change, positive = activation” value is reported as inactive: -42.1%. With `CCOc1ccc(N2C(=O)/C(=C/c3cc(OC)c(OC)c(OC)c3)N(CC(=O)OC)C2=S)cc1` the “activity change, positive = activation” value was inactive: -39.6%. With `Cc1cccc(NC(=O)CSc2ccc(-c3ccc4c(c3)OCO4)nn2)c1C` the “activity change, positive = activation” value was inactive: 25.3%. With `COc1ccc(OCC(=O)c2c[nH]c3ccccc23)cc1` the “activity change, positive = activation” value was inactive: 25.8%. For `O=C(Nc1ccc2c(c1)OCO2)N1CCN(c2ncc(C(F)(F)F)cc2Cl)CC1`, the activity change, positive = activation was -70%. In the case of `CC(=O)/C=C1/SC(CC(=O)O)C(=O)N1c1ccccc1` (stereo not given), the “activity change, positive = activation” value is reported as inactive: -9.2%. Work on `CC(=O)Nc1ccc(S(=O)(=O)N2CCN(CC(O)COc3ccc4ccccc4c3)CC2)cc1` (stereo not given) yielded an activity change, positive = activation of -67.4%. With `O=C(O)Cn1cc(C(=S)N2CCOCC2)c2ccccc21` the activity change, positive = activation was 36.5%. For `CCOC(=O)c1c(C)n(C)c2ccc(OCC(O)Cn3c(C)nc4ccccc43)cc12` (stereo not given), the “activity change, positive = activation” value was inactive: -53.5%. Work on `COc1ccc2nc(NC(=O)C3CCN(S(=O)(=O)c4cccs4)CC3)sc2c1` yielded an activity change, positive = activation of -91.1%. `CCCC(=O)NC(c1ccco1)c1cc(Cl)c2cccnc2c1O` (stereo not given) gave an activity change, positive = activation of -98.7%. `O=C(CCN1CCN(C/C=C/c2ccccc2)CC1)Nc1ccc(Cl)cc1` gave an activity change, positive = activation of -70.6%. For `COc1ccc(C2C(=O)c3ccccc3C2=O)cc1`, the Potency was “inactive and active: 3.98 µM”.
